# From patent publication US8981052B2, “JNK inhibitor molecules” (Xigen Inflammation Ltd., priority 2010, dated 2015)
# At least one structure is not confirmed: it was looked up by name or label, or the drawing left a doubt.
# Tested on: primary rat lymph-nodes purified T cells
# Experiment: CD3/CD28-induced IL-2 release in primary rat lymph-nodes purified T cells
# Type: cell-based
# Settings: inhibitor added 1 h before CD3/CD28 (2 μg/mL), supernatant after 24 h
# Description: Control rat were sacrificed and lymph-nodes were harvested. T cells further were purified (using magnetic negative selection) and plated into 96-well plates at 200,000 cells/well. Cells were treated with anti-rat CD3 and anti-rat CD28 antibodies (2 μg/mL). JNK inhibitor with SEQ ID NO: 172 was added to the cultures 1 h before CD3/CD28 treatment and IL-2 release was assessed in supernatant 24 h after treatment.
# Control animal were sacrificed, lymph nodes (LN) were harvested and kept in complete RPMI medium. LN were smashed with complete RPMI on 70 μm filter using a 5 ml piston. A few drops of media were added to keep strainer wet. Cells were centrifuged for 7 min at 450 g and 4° c. Pellet was resuspended in 5 ml fresh medium. Cells were passed again through cell strainer. An aliquot of cells was counted, while cells were centrifuged again 10 min at 1400 rpm and 4° c. Cells were resupended in MACS buffer (80 μl of MACS buffer per 10^7 cells). 10 μl of anti-rat MHC microbeads were added per 10 million cells, cells were incubated for 15 min at 4°-8° C. Cells were washed with 15 ml MACS buffer and centrifuge for 7 min at 700 g and 4° C. […] Resuspended cells were counted and plated at density of 200000 cells/well in 100 μl of complete medium. […] Cytokines were then measured using standard Elisa kits. Results are expressed as pg/ml of supernatant of the measured cytokine. […]
smiles,measurement,value
"Oc1c2ccccc2c2c3c(cccc13)N=N2 [SP600125, reference compound]",CD3/CD28-induced IL-2 release,Dose-dependent inhibition
